Reference: the supplement of paper PMC8728848
The list shows a part of the results.

Columns and labels:
Assay in all cases: glycan array binding signal (z-score within array); higher = stronger binding
Conditions in all cases: glycan notation: IUPAC condensed, linker removed
GlcNAc(b1-3)Man = target: GlcNAc(b1-3)Man
Summary of the method: (§1)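 The binding signal is a Z-score computed within each array and averaged over linkers. Arrays of the same protein sequence at different concentrations or buffers were also averaged together. Data originate from 3228 arrays in the Consortium for Functional Glycomics database, kept only where the protein sequence was available.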

[1] = target: GlcNAc(b1-3)[GlcNAc(b1-4)][GlcNAc(b1-6)]GlcNAc
Summary of the method: as §1

[2] = target: GlcNAc(b1-3)[GlcNAc(b1-6)]Gal(b1-4)GlcNAc
Summary of the method: as §1

[3] = target: GlcNAc(b1-3)[GlcNAc(b1-6)]GalNAc
Summary of the method: as §1

[4] = target: GlcNAc(b1-4)Gal(b1-4)GlcNAc
Summary of the method: as §1

GlcNAc(b1-4)GlcNAc = target: GlcNAc(b1-4)GlcNAc
Summary of the method: as §1

[5] = target: GlcNAc(b1-4)GlcNAc(b1-4)GlcNAc
Summary of the method: as §1

[6] = target: GlcNAc(b1-4)GlcNAc(b1-4)GlcNAc(b1-4)GlcNAc(b1-4)GlcNAc
Summary of the method: as §1

[7] = target: GlcNAc(b1-4)GlcNAc(b1-4)GlcNAc(b1-4)GlcNAc(b1-4)GlcNAc(b1-4)GlcNAc
Summary of the method: as §1

[8] = target: GlcNAc(b1-4)[GlcNAc(b1-6)]GalNAc
Summary of the method: as §1

[9] = target: GlcNAc(b1-6)Gal(b1-4)GlcNAc
Summary of the method: as §1

GlcNAc(b1-6)GalNAc = target: GlcNAc(b1-6)GalNAc
Summary of the method: as §1

[10] = target: GlcNAc6S(b1-3)Gal(b1-4)GlcNAc
Summary of the method: as §1

Kdn(a2-3)Gal(b1-3)GalNAc = target: Kdn(a2-3)Gal(b1-3)GalNAc
Summary of the method: as §1

Kdn(a2-3)Gal(b1-3)GlcNAc = target: Kdn(a2-3)Gal(b1-3)GlcNAc
Summary of the method: as §1

Kdn(a2-3)Gal(b1-4)Glc = target: Kdn(a2-3)Gal(b1-4)Glc
Summary of the method: as §1

Kdn(a2-3)Gal(b1-4)GlcNAc = target: Kdn(a2-3)Gal(b1-4)GlcNAc
Summary of the method: as §1

[11] = target: Kdn(a2-3)Gal(b1-4)[Fuc(a1-3)]GlcNAc
Summary of the method: as §1

Kdn(a2-6)Gal(b1-4)GlcNAc = target: Kdn(a2-6)Gal(b1-4)GlcNAc
Summary of the method: as §1

[12] = target: Man(a1-2)Man(a1-2)Man(a1-3)Man
Summary of the method: as §1

[13] = target: Man(a1-2)Man(a1-2)Man(a1-6)[Man(a1-3)]Man
Summary of the method: as §1

Man(a1-2)Man(a1-3)Man = target: Man(a1-2)Man(a1-3)Man
Summary of the method: as §1

[14] = target: Man(a1-2)Man(a1-3)[Man(a1-2)Man(a1-6)]Man
Summary of the method: as §1

B1: Pwp7 (Candida glabrata) (protein)
chain: MGSSHHHHHHSSGLVPRGSHMASKNPVDFPNLCQYPNLDGAVAGFDTEIYNADPSILINFSLWPILQFPKEWHKTIGRAITTQTNFKLPASDTTLFGVSIPTQNILIEFRGYFIPPKSGTYTFALYLTDDGSAMFLGNDAAFPCGNITSWSNPTNDQVSVSDYDPKKKTLTVYMVAGVAYPLRIAYYNREKGGSLTASFVDPDGLTHSDWNGYIWTLPSCDNCKYS
GlcNAc(b1-3)Man
  glycan array binding signal (z-score): -0.272
[1]
  glycan array binding signal (z-score): -1.58
[2]
  glycan array binding signal (z-score): -0.977
[3]
  glycan array binding signal (z-score): -0.667
[4]
  glycan array binding signal (z-score): -1.67
GlcNAc(b1-4)GlcNAc
  glycan array binding signal (z-score): -1.22
[5]
  glycan array binding signal (z-score): -1.2
[6]
  glycan array binding signal (z-score): 0.649
[7]
  glycan array binding signal (z-score): 1.15
[8]
  glycan array binding signal (z-score): -0.599
[9]
  glycan array binding signal (z-score): -0.602
GlcNAc(b1-6)GalNAc
  glycan array binding signal (z-score): -0.569
[10]
  glycan array binding signal (z-score): -0.92
Kdn(a2-3)Gal(b1-3)GalNAc
  glycan array binding signal (z-score): 0.995
Kdn(a2-3)Gal(b1-3)GlcNAc
  glycan array binding signal (z-score): 0.536
Kdn(a2-3)Gal(b1-4)Glc
  glycan array binding signal (z-score): 0.185
Kdn(a2-3)Gal(b1-4)GlcNAc
  glycan array binding signal (z-score): -0.166
[11]
  glycan array binding signal (z-score): -0.239
Kdn(a2-6)Gal(b1-4)GlcNAc
  glycan array binding signal (z-score): -0.857
[12]
  glycan array binding signal (z-score): -0.713
[13]
  glycan array binding signal (z-score): -0.05
Man(a1-2)Man(a1-3)Man
  glycan array binding signal (z-score): -0.678
[14]
  glycan array binding signal (z-score): -0.675
